Patent US7846202B2, “Coated implantable medical device” (Cook Incorporated, priority 1995, dated 2010)
At least one compound was matched to its structure with a doubt left.

Test: In vitro release rate of bioactive material from beneath porous parylene layer
Assay type: physicochemical
Description: When the at least one layer 18 of bioactive material contains a relatively soluble material such as heparin, the at least one layer 18 preferably contains a total of from about 0.1 to about 4 mg of bioactive material per cm^2 of the gross surface area of the structure 12. This provides a release rate for the heparin (measured in vitro) which is desirably in the range of 0.1 to 0.5 mg/cm^2 per day, and preferably about 0.25 mg/cm^2 per day, under typical blood flows through vascular stents. It should be noted that the solubility of dexamethasone may be adjusted as desired, with or without the inclusion of heparin, by mixing it with one or more of its relatively more soluble derivatives, such as dexamethasone sodium phosphate.
For example, when the structure 12 of the device 10 is configured as a vascular stent, it is advantageous for the at least one layer 18 to contain relatively soluble heparin, and the second layer 22 to contain relatively less soluble dexamethasone. […] More particularly, when dexamethasone is disposed by itself beneath a porous parylene layer 20 dimensioned as disclosed above, its release rate is negligible; an adequate release rate is obtained only when the thickness of the porous layer 20 is reduced by a factor of ten or more. […]

With C[C@@H]1C[C@H]2[C@@H]3CCC4=CC(=O)C=C[C@]4(C)[C@@]3(F)[C@@H](O)C[C@]2(C)[C@@]1(O)C(=O)CO [dexamethasone] the release rate (dexamethasone by itself beneath a porous parylene layer 20 dimensioned as disclosed) was “negligible” and the “change of release rate in heparin/dexamethasone two-layer device” value (dexamethasone layer over heparin layer, compared with the material alone) was “increasing its release rate many times”.
